# Measured values as given in article PMC7819943, “Rice protein-binding microarrays: a tool to detect cis-acting elements near promoter regions in rice”.
# Some of the results follow.
# Target: T1, OsSMF1 (Oryza sativa, UniProt Q6ZLB0 1-436)
# T1 sequence: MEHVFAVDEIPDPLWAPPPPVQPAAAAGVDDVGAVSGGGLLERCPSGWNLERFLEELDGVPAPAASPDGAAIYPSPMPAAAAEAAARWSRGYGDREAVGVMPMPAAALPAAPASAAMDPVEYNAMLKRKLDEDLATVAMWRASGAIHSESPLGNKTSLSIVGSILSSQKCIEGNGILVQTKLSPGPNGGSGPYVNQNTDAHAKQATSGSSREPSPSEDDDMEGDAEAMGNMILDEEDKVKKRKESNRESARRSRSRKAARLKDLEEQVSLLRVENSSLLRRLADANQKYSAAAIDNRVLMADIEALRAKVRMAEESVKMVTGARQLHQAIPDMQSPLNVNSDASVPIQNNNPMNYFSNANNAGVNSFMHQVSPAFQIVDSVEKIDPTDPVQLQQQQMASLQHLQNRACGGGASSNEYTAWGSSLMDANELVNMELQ
# Test: protein-binding microarray (RPBM); PBS, 2% BSA, 51.3 ng/ul salmon testes DNA, 50 uM zinc acetate, 200 nM TF, 25 C, 1 h; high values mean tight binding
# Conditions: protein: recombinant; tags: N-terminal polyhistidine and DsRed monomer fusion (pET32a); chain copies: 2; label: CyDye5-dUTP incorporated in the synthesized complementary strand; 3' TTTTT single-stranded linker to array surface; dsDNA, one strand shown
# In short: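 Transcription factors were each fused at the N-terminus to a polyhistidine tag plus DsRed and expressed in E. coli BL21-CodonPlus before Ni–NTA purification. Binding to a double-stranded custom Agilent array was carried out with 200 nM protein at 25 °C for 1 h in PBS, 2% BSA, salmon testes DNA and 50 µM zinc acetate. The binding signal is per-feature fluorescence intensity, in arbitrary units, on an Axon 4000B scanner.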
row,Sequence,binding signal
1,CCGCTGGCGGCGGAGAGTACAACGTGTACATTTTGCCCCTCGGAGTCACCTAGTGCAG,3660 fluorescence intensity (a.u.)
2,GACTTCTTCCCGGCCTTTTAGCGTGCGTGGCGCTCAACACCGGAGTCACCTAGTGCAG,10000 fluorescence intensity (a.u.)
3,GCAAACTGAACATACTCGTATATCGAACTGTCATAACTTCCGGAGTCACCTAGTGCAG,3140 fluorescence intensity (a.u.)
4,GAGCTCAAAGCGGCGGTGCACGTGGCGAGGCAGAGCAAAGCGGAGTCACCTAGTGCAG,3620 fluorescence intensity (a.u.)
5,CGAACACAGCCTAGGATGCCACGTCAGTGAAACCACCCATCGGAGTCACCTAGTGCAG,26600 fluorescence intensity (a.u.)
6,TCGCACACGCGCTCACGGTACGCCGCCGCCTCGGTCCTCCCGGAGTCACCTAGTGCAG,12300 fluorescence intensity (a.u.)
7,CTGCAGCAGCCGCAGCCGCCGCCGACGCGGCGGCTCTCTCCGGAGTCACCTAGTGCAG,3360 fluorescence intensity (a.u.)
8,ATCACGTGTGCCACGTGTCCTTTGACCAGCGACACGTGTCCGGAGTCACCTAGTGCAG,25800 fluorescence intensity (a.u.)
9,CGCCCGCACGTACGTGTCGCGAACTCGCGCCACGGCCGCGCGGAGTCACCTAGTGCAG,4720 fluorescence intensity (a.u.)
10,CACACACAGTAGCTCGTGCTGACTAAGCGGCTGACCGGTCCGGAGTCACCTAGTGCAG,11800 fluorescence intensity (a.u.)
11,GGCCGTTTGCAAGGCGTGGCTGGTTGGGTGGATGGATGGACGGAGTCACCTAGTGCAG,3380 fluorescence intensity (a.u.)
12,TGTTTCAAATGCCACATAAGCGTCACGTCAACCCCACAAACGGAGTCACCTAGTGCAG,8120 fluorescence intensity (a.u.)
13,AGCTAGCTCGTCTCCTCGTCCGCCTCGCGCCTGCTGGAGACGGAGTCACCTAGTGCAG,3300 fluorescence intensity (a.u.)
14,ACCAGCCTTTACAAAACCACGTGGTTACCTCATGATTTACCGGAGTCACCTAGTGCAG,4580 fluorescence intensity (a.u.)
15,CTTCTTCTTTTGCGTGGGGAGCGATTAACACGCGTGCGTCCGGAGTCACCTAGTGCAG,4000 fluorescence intensity (a.u.)
16,CAAACCTTGCAGTGTGCAACTATCAGCTGTTGTTTTACAGCGGAGTCACCTAGTGCAG,3810 fluorescence intensity (a.u.)
17,ACAGGTGCACGCACACGTGCCGCATCAACCAGACAGCCACCGGAGTCACCTAGTGCAG,3360 fluorescence intensity (a.u.)
18,AGTTTCTTGCTCCCCACTCCCGCGCCGCGTCACGTCACGCCGGAGTCACCTAGTGCAG,9780 fluorescence intensity (a.u.)
19,GTTTGCCCACACAGCCGCCGCTTCCTCTCCCAGGCCGCGTCGGAGTCACCTAGTGCAG,12900 fluorescence intensity (a.u.)
20,CCTCCTCCCGGCTCGAGATCCGTGGCCACGACGCGTGGTGCGGAGTCACCTAGTGCAG,5300 fluorescence intensity (a.u.)
21,TCTTCGGGAGGAGGCGCGGGGTCGGGCGGCGCCGATGGGGCGGAGTCACCTAGTGCAG,3210 fluorescence intensity (a.u.)

row,Sequence,binding signal
1,GCTGGCATATGTATCCCTTACACATCATCACCCAGTGTTCCGGAGTCACCTAGTGCAG,12900 fluorescence intensity (a.u.)
2,TTGGTCGCATTTCGGGTGGTGGTGGTGGTGGTGGTGGTGGCGGAGTCACCTAGTGCAG,3870 fluorescence intensity (a.u.)
3,GCTCCATCCCTCTCTCTCGCCACGCGCTGCCGTCGTCGGCCGGAGTCACCTAGTGCAG,3540 fluorescence intensity (a.u.)
4,TCGTAGAGTCGTATGGTGGCCAGCTTGAGGCCCTGACGCACGGAGTCACCTAGTGCAG,17500 fluorescence intensity (a.u.)
5,TGCGACCAGCCCATTAACTTGTCCAGGACCAGCAACGCGGCGGAGTCACCTAGTGCAG,3390 fluorescence intensity (a.u.)
6,AATAGGAAATAAACATTACTGAGAAAAGGGCTCATGTTGGCGGAGTCACCTAGTGCAG,29300 fluorescence intensity (a.u.)
7,CCTCGTGTCCCTCGTCATCAAACCCCACCGCCACAAGGTACGGAGTCACCTAGTGCAG,14100 fluorescence intensity (a.u.)
8,TAATGGAGTATGTGGTGGAGACACGTGGCAGTGTGACCGGCGGAGTCACCTAGTGCAG,25200 fluorescence intensity (a.u.)
9,TAAGCTAACCTTGTACTAAGATGTGACACATCCAAGTACACGGAGTCACCTAGTGCAG,3630 fluorescence intensity (a.u.)
10,CGCACGCACCCACACCAAACCAAACTCTACTCGATCTCCACGGAGTCACCTAGTGCAG,3610 fluorescence intensity (a.u.)
11,CTACTGACACGTAGGTGCCACCATGGCATGCCACGTCAGCCGGAGTCACCTAGTGCAG,61500 fluorescence intensity (a.u.)
12,GCTGCACCTGTTGTGGTGCCATCATCTGTTCCTATGCCTTCGGAGTCACCTAGTGCAG,3180 fluorescence intensity (a.u.)
13,GGTTGGGTGAGTGACTCATCCAGCCGTGTGTATGTACAAACGGAGTCACCTAGTGCAG,7000 fluorescence intensity (a.u.)
14,GCACCTGCTGCAAGCCACCCAGGCTATGGTCAGCAGCAGTCGGAGTCACCTAGTGCAG,3480 fluorescence intensity (a.u.)
15,TTGCGGACCACATTAACTCCACTCCACGCGTACATCCAGCCGGAGTCACCTAGTGCAG,5280 fluorescence intensity (a.u.)
16,TTTCTATGAAAAGACGATGACATGGACGATGATGTGTACGCGGAGTCACCTAGTGCAG,8180 fluorescence intensity (a.u.)
17,TGCGCAACTTGCCAACTTCTCAAGATTTTGATATAGGGTGCGGAGTCACCTAGTGCAG,16700 fluorescence intensity (a.u.)
18,TTTACTTTAGTGCTACGTAAGCGCCACGTCGATGCACATACGGAGTCACCTAGTGCAG,10000 fluorescence intensity (a.u.)
19,CTTGCTGCAAGCAACCAAGAAGTCACACCCACGTGGAGAACGGAGTCACCTAGTGCAG,5130 fluorescence intensity (a.u.)
20,GCTGCTGATGGTGATGATGACGATGATTAATGGCGGATTACGGAGTCACCTAGTGCAG,5810 fluorescence intensity (a.u.)
21,ACTTAACGTGATGGAATGGCATCCATAATATTCGTCCACCCGGAGTCACCTAGTGCAG,3140 fluorescence intensity (a.u.)

# 11 entries from above in another layout.
row | Sequence | binding signal
1 | GCTGGCATATGTATCCCTTACACATCATCACCCAGTGTTCCGGAGTCACCTAGTGCAG | 12900 fluorescence intensity (a.u.)
7 | CCTCGTGTCCCTCGTCATCAAACCCCACCGCCACAAGGTACGGAGTCACCTAGTGCAG | 14100 fluorescence intensity (a.u.)
8 | TAATGGAGTATGTGGTGGAGACACGTGGCAGTGTGACCGGCGGAGTCACCTAGTGCAG | 25200 fluorescence intensity (a.u.)
10 | CGCACGCACCCACACCAAACCAAACTCTACTCGATCTCCACGGAGTCACCTAGTGCAG | 3610 fluorescence intensity (a.u.)
11 | CTACTGACACGTAGGTGCCACCATGGCATGCCACGTCAGCCGGAGTCACCTAGTGCAG | 61500 fluorescence intensity (a.u.)
13 | GGTTGGGTGAGTGACTCATCCAGCCGTGTGTATGTACAAACGGAGTCACCTAGTGCAG | 7000 fluorescence intensity (a.u.)
14 | GCACCTGCTGCAAGCCACCCAGGCTATGGTCAGCAGCAGTCGGAGTCACCTAGTGCAG | 3480 fluorescence intensity (a.u.)
15 | TTGCGGACCACATTAACTCCACTCCACGCGTACATCCAGCCGGAGTCACCTAGTGCAG | 5280 fluorescence intensity (a.u.)
16 | TTTCTATGAAAAGACGATGACATGGACGATGATGTGTACGCGGAGTCACCTAGTGCAG | 8180 fluorescence intensity (a.u.)
17 | TGCGCAACTTGCCAACTTCTCAAGATTTTGATATAGGGTGCGGAGTCACCTAGTGCAG | 16700 fluorescence intensity (a.u.)
19 | CTTGCTGCAAGCAACCAAGAAGTCACACCCACGTGGAGAACGGAGTCACCTAGTGCAG | 5130 fluorescence intensity (a.u.)
